# Laboratory results: the supplement of paper PMC7858590
# “And” between values parts separate entries of the source, which are not always exact repeats. Identical values can stand only once. ± gives the standard deviation of the averaged measurements. Over roughly 3,800 compounds, “cell shape (eccentricity) Z-score vs DMSO control” has its median near 1.1; the lowest 2% begin near -4.7. The list shows a part of the results. Starred links: 1 amine or outer side, 2 acyl side, 3 side chain; linkers in the order of their positions; H or OH if unused. Positions of bridges follow the written chain, without caps; N, C: chain ends. Residues, ends and D or L forms follow the SMILES beside them. X1 = CCC(C)CCCCCCCCC(CC(=O)[*:1])O[*:2]
# Test system: human monocyte-derived macrophages (M0)
# Experiment: cell shape (eccentricity) Z-score vs DMSO control; higher = more elongated, M2-like morphology
# Conditions: 20 µM; 24 h; macrophage state: M0 (M-CSF)
# Method: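 Primary human monocyte-derived macrophages (M-CSF differentiated, pooled from 4 donors, 5000 cells/well in 384-well plates) were treated with each compound at 20 uM for 24 h, then fixed and stained with phalloidin/DAPI and imaged on an Opera Phenix (6 fields, about 1000 cells/well). Cell eccentricity was measured with CellProfiler, and a Z-score (t-test) was computed against 4 DMSO control wells in the same row. Negative values mean round (M1-like) cells and positive values mean elongated (M2-like) cells; the paper's hit cutoffs are Z <= -4 (M1) and Z >= 6 (M2). Scale: negative = round, M1-like.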
row,Compound,cell shape (Z-score)
1,COC(=O)CCC(=O)CN,1.27
2,Cc1cc(O)cc(C)c1Cl,0.653
3,CO[C@H]1/C=C/O[C@@]2(C)Oc3c(C)c(O)c4c(O)c(c5c(nc6cc(C)ccn65)c4c3C2=O)NC(=O)/C(C)=C\C=C\[C@H](C)[C@H](O)[C@@H](C)C(O)[C@@H](C)[C@H](OC(C)=O)[C@@H]1C (some centres not stated),-2.16
4,COC(=O)c1ccc([C@H]2c3[nH]c4ccccc4c3C[C@H](C(=O)OC)N2C(=O)CCl)cc1,-2.13
5,Clc1ccc2c(c1)CCc1cccnc1C2=C1CCNCC1,-2.88
6,COc1cc(C=O)c([N+](=O)[O-])cc1OC,2.74
7,Oc1cccc(O)c1,5.8
8,COc1cc(/C=C/C(=O)OC2C(COC(=O)c3cc(OC)c(OC)c(OC)c3)OC(OC3(CO)OC(CO)C(O)C3O)C(O)C2O)cc(OC)c1OC (configuration not stated),0.742
9,CCCOc1ccc2nc(NC(=O)OC)sc2c1,-3.57
10,Cc1ccccc1N1CCN(S(=O)(=O)CC23CCC(C[C@@H]2NC(=O)[C@@H](N)CCS(C)(=O)=O)C3(C)C)CC1 (some centres not stated),2.02
11,CCCCN(CCCC)CCCC.Nc1ncnc2c1ncn2C1OC(COP(=O)(O)O)C(O)C1O (configuration not stated),0.459
12,COc1c(O)cc2oc(-c3ccc(O)c(O)c3)cc(=O)c2c1O,1.81
13,Cc1c(O)c(=O)n(-c2ccccc2)n1C,1.53
14,Nc1cc(-c2ccncc2)c[nH]c1=O,0.0533
15,COc1c(OC/C=C(\C)CC2C=C(C)C(=O)O2)ccc2ccc(=O)oc12 (configuration not stated),-1.43
16,CS(=O)(=O)Nc1c(O)ccc2c1CCCC2C1=NCCN1 (configuration not stated),0.854
17,COc1ccc2c(c1)OC(C(=O)c1ccccc1)C2=O (configuration not stated),-0.83
18,C[C@H]1[C@H](C)CC[C@]2(C(=O)O)CC[C@]3(C)C(=CCC4[C@@]5(C)C[C@@H](O)[C@H](O)[C@@](C)(CO)C5CC[C@]43C)[C@H]12 (some centres not stated),2.15
19,COC(=O)C=Cc1cccc(N(Cc2ccc(-c3ccc(N(C)C)cc3)cc2)C(=O)C2CCCCC2)c1,-1.18
20,CC1(C)O[C@@H]2CC3C4C[C@H](F)C5=CC(=O)C=CC5(C)C4C(O)CC3(C)[C@]2(C(=O)CO)O1 (some centres not stated),-1.27
21,CN1CCc2cc(Cl)c(O)cc2[C@@H](c2ccccc2)C1,3.71
22,O=C(NC1CCN(Cc2ccccc2)CC1)c1ccc(I)cc1,-1.38

row,Compound,cell shape (Z-score)
1,CCCc1c(OCCCOc2ccc(OCC(=O)O)cc2)ccc(CC=O)c1O,-1.29
2,CC(=O)OC(C)(C)/C=C/C(=O)[C@](C)(O)[C@H]1C(O)C[C@@]2(C)[C@@H]3CC=C4[C@@H](C=C(O[C@@H]5O[C@H](CO)[C@@H](O)[C@H](O)[C@H]5O)C(=O)C4(C)C)[C@]3(C)C(=O)C[C@]12C (some centres not stated),0.718
3,COc1cc(C)c(C(=O)Oc2cc(C)c(C(=O)Oc3cc(C)c(C(=O)NC(C)C(=O)O)c(O)c3)c(O[C@@H]3O[C@H](CO)[C@@H](O)[C@H](O)[C@H]3O)c2)c(OC)c1 (some centres not stated),0.361
4,CC(=O)O[C@@H]1c2c(ccc3ccc(=O)oc23)O[C@@H]1C(C)(C)OC(=O)C=C(C)C,3.11
5,CCCCc1ccc2[nH]c(NC(=O)OC)nc2c1,-5.71 and -2.34
6,CC(C)NC[C@@H](O)c1ccc(NS(C)(=O)=O)cc1,-0.104
7,CC(C)C(NS(=O)(=O)c1ccc(-c2ccc(Br)cc2)cc1)C(=O)O (configuration not stated),2.19
8,CC(C)SC(=N)N,2.56
9,CN(C)CCC1(c2ccc(Cl)cc2)Cc2ccccc2C(=O)O1 (configuration not stated),-0.315
10,NCCCCNS(=O)(=O)c1ccc2c(Cl)cccc2c1,2.07
11,COc1cc(C2OC[C@@H]3[C@@H](c4cc(OC)c(O)c(OC)c4)OC[C@H]23)cc(OC)c1O (some centres not stated),0.11
12,C=CC(C)(O)CC/C=C(\C)C(=O)OCC1CCC2C(C(=O)O)=COC(OC3OC(CO)C(O)C(O)C3O)C12 (configuration not stated),1.66 ± 2.1
13,O=C1NC(=O)C(c2ccccc2[N+](=O)[O-])=C1Nc1ccc(O)c(Cl)c1,-0.988
14,COc1ccc(C2COc3cc(O)ccc3C2)c(O)c1 (configuration not stated),2.23
15,COCCNC(=O)COc1ccc(OCCNC[C@@H](O)COc2ccccc2)cc1,1.72
16,COc1ccc(-c2oc3cc(OC)c(OC)c(OC)c3c(=O)c2OC)cc1OC,-1.55
17,CC(NC(=O)/C=C/C(=O)O)C(=O)NC(C(=O)NC(Cc1c[nH]c2ccccc12)C(=O)O)C(C)c1c[nH]c2ccccc12 (configuration not stated),-2.48
18,CC1(OC(=O)/C=C/c2ccccc2)CC(O)C2C=COC(OC3OC(CO)C(O)C(O)C3O)C21 (configuration not stated),0.728
19,CC1(C)CC[C@]2(C(=O)O[C@@H]3O[C@H](CO[C@@H]4O[C@H](CO[C@@H]5O[C@H](CO)[C@@H](O)[C@H](O)[C@H]5O)[C@@H](O)[C@H](O)[C@H]4O)[C@@H](O)[C@H](O[C@@H]4O[C@H](CO)[C@@H](O)[C@H](O)[C@H]4O)[C@H]3O)CC[C@]3(C)C(=CCC4[C@@]5(C)CC[C@H](O)[C@@](C)(C(=O)O)C5CC[C@]43C)C2C1 (some centres not stated),1.13
20,O=C(/C=C/c1cccnc1)NCCCCC1CCN(C(=O)c2ccccc2)CC1,-3
21,CC1CCN=C(N)S1 (configuration not stated),2.54
22,CCN(CC)CCNC(C(=O)OCCC(C)C)c1ccccc1 (configuration not stated),2.08

row,Compound,cell shape (Z-score)
1,c1ccc2[nH]c(-c3cscn3)nc2c1,4.06
2,COC(=O)C1=C(C)NC(C)=C(C(=O)OCCN2CCN(C(c3ccccc3)c3ccccc3)CC2)C1c1cccc([N+](=O)[O-])c1 (configuration not stated),2.66
3,COc1cc(COc2cc(N)c(Cl)cc2C(=O)CCC2CCN(CCNS(C)(=O)=O)CC2)cc(OC)c1,2.31
4,CCC/C=C/C=C/C1C[C@@H](O)[C@@H](O)C(=O)[C@H]1CO (some centres not stated),-0.556
5,COC1CC2CCC(C)C(O)(O2)C(=O)C(=O)N2CCCCC2C(=O)OC(C(C)CC2CCC(O)C(OC)C2)CC(=O)C(C)/C=C(\C)C(O)C(OC)C(=O)C(C)CC(C)/C=C/C=C/C=C/1C (configuration not stated),-0.961
6,O=c1ccc2cc(O)c(O)cc2o1,0.316
7,COC(=O)[C@H](NC(=O)c1cc(-c2ccccc2)nc2ccccc12)c1ccccc1,2.65
8,O=C(NO)c1ccncc1,2.25
9,CC(C(=O)O)c1ccc2c(c1)[nH]c1ccc(Cl)cc12 (configuration not stated),0.593
10,O=C(/C=C/C=C/c1ccc2c(c1)OCO2)N1CCCCC1,2.45
11,CN(C)C/C=C/C(=O)Nc1cc2c(Nc3ccc(F)c(Cl)c3)ncnc2cc1O[C@H]1CCOC1,0.367
12,CC(=O)OCC(=O)[C@@]1(O)[C@H](OC(C)=O)CC2C3CCC4=CC(=O)C=C[C@]4(C)[C@@]3(F)[C@@H](O)C[C@@]21C (some centres not stated),-3.67
13,Oc1cc(O)cc(/C=C/c2ccc(O)c(O)c2)c1,-0.87
14,COC1OC2c3cc4c(cc3CCN(C)C2c2ccc3c(c21)OCO3)OCO4 (configuration not stated),-2.08
15,O=C(CCCN1CCC(O)(c2cccc(C(F)(F)F)c2)CC1)c1ccc(F)cc1,-0.261
16,C=C1C(=O)O[C@H]2C[C@H](C)[C@@H]3CC(=O)C(C)=C3C[C@H]12,-1.93
17,CC1CCC23CCC(O[C@@H]4O[C@H](CO)[C@@H](O)[C@H](O)[C@H]4O)C12C(C=O)=CC3(C)C (some centres not stated),-2.01
18,O=C(OCc1ccccc1O[C@@H]1O[C@H](CO)[C@@H](O)[C@H](O)[C@H]1O)c1c(O)cccc1O[C@@H]1O[C@H](CO)[C@@H](O)[C@H](O)[C@H]1O,-1.14
19,COc1ccc(C(=O)CC2(O)C(=O)Nc3c(Cl)ccc(Cl)c32)cc1 (configuration not stated),-7.6
20,COc1c(O)cc2oc(-c3ccc(O[C@@H]4O[C@H](CO)[C@@H](O)[C@H](O)[C@H]4O)cc3)cc(=O)c2c1O,-0.343
21,CCc1c2c(nc3ccc(O)cc13)-c1cc3c(c(=O)n1C2)COC(=O)C3(O)CC (configuration not stated),4.55
22,COc1cccc2c1C(=O)c1c(O)c3c(c(O)c1C2=O)C[C@@](O)(C(=O)CO)C[C@@H]3OC1C[C@H](N)[C@H](O)[C@H](C)O1 (some centres not stated),4.22

row,Compound,cell shape (Z-score)
1,O=C(Nc1ccccc1)c1ccccc1O,0.616
2,CN(C)c1ccc(C(=O)NCCCCCCC(=O)NO)cc1,0.877
3,Cc1cccc(C)c1NC(=O)c1ccccc1C(=O)O,0.699
4,COc1c2c(cc3oc(=O)ccc13)OC(C)(C)C=C2,0.688
5,O=c1cc(N2CCOCC2)oc2c1ccc1ccccc12,-0.822
6,COc1cc2c(c(OC)c1OC)c(=O)c1ccccc1n2C,4.49
7,CC(C)=CCCC1(C)C=Cc2c(c(C)cc3c2[nH]c2cc(O)ccc23)O1 (configuration not stated),1.6
8,C[C@@H](CN1CCC(Cc2ccccc2)CC1)[C@@H](O)c1ccc(O)cc1,2.28
9,CC(=O)NC(Cc1c[nH]c2ccccc12)C(=O)O (configuration not stated),2.07
10,CC(C)(Oc1ccc(Cl)cc1)C(=O)O,1.93
11,O=C(O)C=C1CCCc2ccccc2C1O (configuration not stated),-0.846
12,COc1ccc2c3c1OC1CC(O)C=CC31CCN(C)C2 (configuration not stated),1.58
13,OCC(O)CN1CCN(c2ccccc2)CC1 (configuration not stated),2.29
14,CC(NC(=O)c1ccccc1N)C(N)=O (configuration not stated),4.09
15,COc1ccccc1-c1cccc(-c2nc(C(=O)NCc3ccncc3)cc3c2[C@H](CCO)N([S@@](=O)C(C)(C)C)C3)c1,1.22
16,CC1=C(SCCO)C(=O)c2ccccc2C1=O,-3.1
17,C[C@@H]1OC(OC[C@H]2O[C@@H](Oc3cc(O)c4c(=O)cc(-c5ccc(O)c(O)c5)oc4c3)[C@H](O)[C@@H](O)[C@@H]2O)[C@H](O)[C@H](O)[C@H]1O (some centres not stated),-0.444
18,CN1Cc2c(N)cccc2C(c2ccccc2)C1 (configuration not stated),1.27
19,NS(=O)(=O)c1cc2c(cc1Cl)NC(Cc1ccccc1)NS2(=O)=O (configuration not stated),-1.32
20,COc1cc(C[C@@H]2COC(c3ccc(O[C@@H]4O[C@H](CO)[C@@H](O)[C@H](O)[C@H]4O)c(OC)c3)[C@@H]2CO)ccc1O[C@@H]1O[C@H](CO)[C@@H](O)[C@H](O)[C@H]1O (some centres not stated),2.98
21,CCC(C)CCCCCCCCC1CC(=O)NC(CCC(N)=O)C(=O)NC(CC(C)C)C(=O)NC(CC(C)C)C(=O)NC(C(C)C)C(=O)NC(CC(=O)O)C(=O)NC(CC(C)C)C(=O)NC(C(C)C)C(=O)O1 (configuration not stated) (QLLVDLV; linker N-C via X1; configuration not given here),0.603
